Test results: article PMC4882600
No constants are given. Whether binding was seen depends on the method and setting. Binding seen in cells or lysates may run through a third protein. Binding can be weak; no strength is given.

Columns and labels:
[1] = biological target: T1, ras association domain family 1 (RASSF1) (human (endogenous in TE-8 and TE-12)) (UniProt Q9NS23); test: co-IP; endogenous proteins of TE-8 and TE-12 cell lysates, cells with or without 1 uM rhBMP-2; precipitated with a mouse monoclonal RASSF1 antibody and Protein A-Sepharose; lysis buffer 20 mM Tris HCl pH 8, 10% glycerol, 137 mM NaCl, 1% Nonidet P-40, 2 mM EDTA; blots
T1 sequence: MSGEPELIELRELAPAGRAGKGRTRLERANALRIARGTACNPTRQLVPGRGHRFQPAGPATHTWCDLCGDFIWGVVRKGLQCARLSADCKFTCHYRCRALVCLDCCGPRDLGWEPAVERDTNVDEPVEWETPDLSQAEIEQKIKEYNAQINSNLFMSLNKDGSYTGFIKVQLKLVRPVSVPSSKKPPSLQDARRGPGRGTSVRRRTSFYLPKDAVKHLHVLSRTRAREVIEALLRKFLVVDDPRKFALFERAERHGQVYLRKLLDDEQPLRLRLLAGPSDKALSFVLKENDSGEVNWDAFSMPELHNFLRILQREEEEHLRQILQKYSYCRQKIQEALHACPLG

[2] = biological target: T1, ras association domain family 1 (RASSF1) (human (endogenous in TE-8 and TE-12)); test: co-IP; endogenous proteins of TE-8 and TE-12 cell lysates, cells with or without rhBMP-2 (Fig. 5B); precipitating antibody not stated for this experiment

Row | binding [1] | binding [2] | Substance
1 | binds | – | Mob1 (human (endogenous in TE-8 and TE-12))
2 | – | binds | Akt (human (endogenous in TE-8 and TE-12))
